Reference: publication PMC7758050

Sequences of proteins named here, by UniProt entry; tags and fusion partners are left off.
UniProt Q9UM11: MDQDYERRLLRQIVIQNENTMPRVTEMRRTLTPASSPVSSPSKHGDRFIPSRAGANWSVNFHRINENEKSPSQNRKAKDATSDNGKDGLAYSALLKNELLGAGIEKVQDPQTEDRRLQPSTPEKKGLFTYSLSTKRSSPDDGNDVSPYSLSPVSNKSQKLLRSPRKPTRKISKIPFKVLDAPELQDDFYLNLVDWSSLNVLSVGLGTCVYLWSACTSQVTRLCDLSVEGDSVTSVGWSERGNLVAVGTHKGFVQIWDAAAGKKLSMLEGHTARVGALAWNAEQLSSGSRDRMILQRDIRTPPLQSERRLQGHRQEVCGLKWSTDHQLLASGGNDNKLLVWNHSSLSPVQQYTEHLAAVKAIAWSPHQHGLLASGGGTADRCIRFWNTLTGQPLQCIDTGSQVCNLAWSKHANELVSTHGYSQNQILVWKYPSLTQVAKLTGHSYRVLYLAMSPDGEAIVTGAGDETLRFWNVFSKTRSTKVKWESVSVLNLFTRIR
UniProt Q9HAW4: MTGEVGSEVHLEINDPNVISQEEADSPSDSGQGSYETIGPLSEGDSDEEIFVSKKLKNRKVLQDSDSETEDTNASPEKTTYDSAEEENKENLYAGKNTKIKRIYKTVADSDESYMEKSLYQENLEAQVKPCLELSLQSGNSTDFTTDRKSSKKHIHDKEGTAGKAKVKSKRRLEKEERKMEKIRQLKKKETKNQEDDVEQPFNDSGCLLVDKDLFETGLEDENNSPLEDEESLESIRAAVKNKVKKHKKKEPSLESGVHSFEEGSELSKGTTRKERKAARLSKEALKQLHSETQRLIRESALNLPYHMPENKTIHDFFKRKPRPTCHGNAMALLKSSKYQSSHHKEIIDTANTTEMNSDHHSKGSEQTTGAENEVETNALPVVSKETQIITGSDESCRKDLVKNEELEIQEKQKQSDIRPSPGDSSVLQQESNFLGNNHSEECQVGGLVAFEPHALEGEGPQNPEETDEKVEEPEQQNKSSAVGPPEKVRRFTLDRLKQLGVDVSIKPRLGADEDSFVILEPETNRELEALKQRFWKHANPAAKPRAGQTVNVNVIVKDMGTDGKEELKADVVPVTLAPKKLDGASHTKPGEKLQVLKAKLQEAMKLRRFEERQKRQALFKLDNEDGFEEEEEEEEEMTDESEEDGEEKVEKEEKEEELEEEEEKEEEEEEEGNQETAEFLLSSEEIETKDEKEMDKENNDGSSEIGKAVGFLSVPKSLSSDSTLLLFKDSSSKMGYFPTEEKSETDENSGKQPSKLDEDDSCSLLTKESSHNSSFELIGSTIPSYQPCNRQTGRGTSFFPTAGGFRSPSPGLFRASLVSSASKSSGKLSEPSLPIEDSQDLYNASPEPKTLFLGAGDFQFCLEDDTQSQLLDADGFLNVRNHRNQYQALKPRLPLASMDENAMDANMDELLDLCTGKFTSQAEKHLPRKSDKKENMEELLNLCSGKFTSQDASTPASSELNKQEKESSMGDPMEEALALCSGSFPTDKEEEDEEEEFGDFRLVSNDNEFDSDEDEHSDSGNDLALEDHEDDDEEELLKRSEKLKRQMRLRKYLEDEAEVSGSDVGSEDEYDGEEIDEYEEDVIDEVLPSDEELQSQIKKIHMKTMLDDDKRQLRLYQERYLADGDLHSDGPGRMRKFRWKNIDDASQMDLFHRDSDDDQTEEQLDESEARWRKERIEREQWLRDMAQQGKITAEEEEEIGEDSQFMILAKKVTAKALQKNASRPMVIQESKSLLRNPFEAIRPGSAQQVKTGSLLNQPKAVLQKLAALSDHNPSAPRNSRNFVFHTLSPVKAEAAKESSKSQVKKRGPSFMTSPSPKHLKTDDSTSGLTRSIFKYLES
UniProt P52732: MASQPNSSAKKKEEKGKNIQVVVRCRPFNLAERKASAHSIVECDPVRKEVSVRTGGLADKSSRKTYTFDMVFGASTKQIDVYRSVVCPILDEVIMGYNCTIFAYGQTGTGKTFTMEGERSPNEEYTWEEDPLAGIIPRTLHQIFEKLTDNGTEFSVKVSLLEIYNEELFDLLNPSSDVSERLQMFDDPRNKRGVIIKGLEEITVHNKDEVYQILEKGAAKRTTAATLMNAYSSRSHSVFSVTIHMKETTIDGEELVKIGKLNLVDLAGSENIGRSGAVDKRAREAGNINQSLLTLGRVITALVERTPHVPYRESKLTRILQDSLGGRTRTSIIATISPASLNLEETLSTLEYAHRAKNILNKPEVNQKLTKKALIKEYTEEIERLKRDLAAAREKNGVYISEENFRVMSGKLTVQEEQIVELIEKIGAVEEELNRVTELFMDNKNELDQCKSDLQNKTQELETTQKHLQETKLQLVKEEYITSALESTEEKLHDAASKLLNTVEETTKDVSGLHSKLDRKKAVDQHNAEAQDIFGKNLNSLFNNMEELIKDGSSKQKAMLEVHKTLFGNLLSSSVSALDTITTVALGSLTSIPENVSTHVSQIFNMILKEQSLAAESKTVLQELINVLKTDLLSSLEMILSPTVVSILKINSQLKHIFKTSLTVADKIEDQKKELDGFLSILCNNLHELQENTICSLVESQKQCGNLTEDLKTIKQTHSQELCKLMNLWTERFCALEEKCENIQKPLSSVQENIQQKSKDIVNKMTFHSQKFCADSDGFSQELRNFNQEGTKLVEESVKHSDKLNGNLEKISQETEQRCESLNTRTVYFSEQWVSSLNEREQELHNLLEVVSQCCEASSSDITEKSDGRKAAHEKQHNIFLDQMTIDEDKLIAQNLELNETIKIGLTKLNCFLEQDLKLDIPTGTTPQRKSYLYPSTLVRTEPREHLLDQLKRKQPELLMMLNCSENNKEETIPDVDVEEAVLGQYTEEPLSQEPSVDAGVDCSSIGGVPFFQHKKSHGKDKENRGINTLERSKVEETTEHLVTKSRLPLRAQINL
UniProt P31350: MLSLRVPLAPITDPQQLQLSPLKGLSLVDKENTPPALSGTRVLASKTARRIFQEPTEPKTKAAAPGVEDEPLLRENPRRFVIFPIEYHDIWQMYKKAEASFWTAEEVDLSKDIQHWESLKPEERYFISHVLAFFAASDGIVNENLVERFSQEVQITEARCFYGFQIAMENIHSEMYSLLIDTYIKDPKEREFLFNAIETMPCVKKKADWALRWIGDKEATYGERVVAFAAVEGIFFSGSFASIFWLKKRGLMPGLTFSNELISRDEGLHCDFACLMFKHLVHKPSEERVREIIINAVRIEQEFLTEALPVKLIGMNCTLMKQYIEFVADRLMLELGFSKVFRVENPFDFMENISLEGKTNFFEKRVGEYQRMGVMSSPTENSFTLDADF

What follows are substances tested against FLAG-Cdh1 (UniProt Q9UM11) (assay: affinity purification with mass spectrometry; FLAG-Cdh1 or empty vector transiently expressed 24 h in asynchronous HEK-293T; MG-132 10 uM 4 h before lysis; NETN lysis; anti-FLAG M2 agarose 6 h at 4°C; glycine elution; tryptic digest, LC-MS/MS).

Q: With Claspin (from UniProt Q9HAW4 1-1339) as the substance, how does the binding read?
A: binds

Q: Kif11 (from UniProt P52732 1-1056) was tested. Which binding did it give?
A: binds

Q: How did the binding turn out when Rrm2 (from UniProt P31350 1-389) was run?
A: binds

These are yes or no findings as the source states them, for the method shown. Binding seen in cells or lysates may run through a third protein. A yes stands for co-enrichment or nearness to the bait. Other partners may have been found.
